# In the supplement of paper PMC4604168 (melanoma cell lines):
# Some of the results follow. Single values are uncertain, as repeats are few or missing.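 Imaging used 1,536-well plates; nuclei positive for cleaved PARP by antibody were divided by total DNA-stained nuclei to yield the apoptosis fraction. Doses for screening kept most cells viable, and cell lines differ markedly in resting and induced cleaved-PARP levels.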
# Legend:
# Test in all cases: cleaved PARP positive nuclei fraction relative to DMSO control; melanoma cells; higher = more apoptosis
# Conditions in all cases: library dose: low library concentration; 72 h
# 501Mel = tested on: 501Mel
# A101D = tested on: A101D
# A2058 = tested on: A2058
# A375 = tested on: A375
# C32 = tested on: C32
# CBRC008 = tested on: CBRC008 (line from a melanoma biopsy)
# CBRC013 = tested on: CBRC013 (line from a melanoma biopsy)
# CBRC014 = tested on: CBRC014 (line from a melanoma biopsy)
# CBRC016 = tested on: CBRC016 (line from a melanoma biopsy)
# CBRC017 = tested on: CBRC017 (line from a melanoma biopsy)
# COLO792 = tested on: COLO792
# COLO800 = tested on: COLO800
# COLO829 = tested on: COLO829
# G361 = tested on: G361
# IPC-298 = tested on: IPC-298
# IST-MEL1 = tested on: IST-MEL1
# LB2518-MEL = tested on: LB2518-MEL
# LOXIMVI = tested on: LOXIMVI
# MEL-HO = tested on: MEL-HO
Structure (SMILES),cleaved PARP positive nuclei fraction (501Mel),cleaved PARP positive nuclei fraction (A101D),cleaved PARP positive nuclei fraction (A2058),cleaved PARP positive nuclei fraction (A375),cleaved PARP positive nuclei fraction (C32),cleaved PARP positive nuclei fraction (CBRC008),cleaved PARP positive nuclei fraction (CBRC013),cleaved PARP positive nuclei fraction (CBRC014),cleaved PARP positive nuclei fraction (CBRC016),cleaved PARP positive nuclei fraction (CBRC017),cleaved PARP positive nuclei fraction (COLO792),cleaved PARP positive nuclei fraction (COLO800),cleaved PARP positive nuclei fraction (COLO829),cleaved PARP positive nuclei fraction (G361),cleaved PARP positive nuclei fraction (IPC-298),cleaved PARP positive nuclei fraction (IST-MEL1),cleaved PARP positive nuclei fraction (LB2518-MEL),cleaved PARP positive nuclei fraction (LOXIMVI),cleaved PARP positive nuclei fraction (MEL-HO)
"C[C@@H](N)c1ccc(C(=O)Nc2ccnc3[nH]ccc23)cc1 + CC1(C)NC(=O)N(c2ccc([N+](=O)[O-])c(C(F)(F)F)c2)C1=O [nilutamide] (first compound 0.4 µM, partner dose 1 µM)",39.1%,127%,98%,58.5%,91%,55.8%,147%,90.1%,84.1%,93.4%,136%,76.9%,94.8%,124%,251%,79.8%,230%,96.1%,66.1%
"CS(=O)(=O)c1ccc(C(=O)Nc2ccc(Cl)c(-c3ccccn3)c2)c(Cl)c1 [vismodegib] + O=C(Nc1cccc(Cl)c1)Nc1ncc(CCNc2ncnc3ccsc23)s1 [SNS314] (first compound 1 µM, partner dose 0.0008 µM)",30%,80.6%,101%,37%,65%,54.5%,99.8%,82.9%,37.3%,658%,90.7%,108%,72.5%,93.9%,32.2%,172%,141%,60.9%,63.6%
"CN(c1ncccc1CNc1nc(Nc2ccc3c(c2)CC(=O)N3)ncc1C(F)(F)F)S(C)(=O)=O + NC(=O)Nc1cc(-c2cccc(F)c2)sc1C(=O)N[C@H]1CCCNC1 [AZD7762] (first compound 0.08 µM, partner dose 0.02 µM)",117%,203%,130%,275%,550%,202%,104%,107%,152%,108%,110%,121%,100%,73.1%,222%,48.6%,140%,93.6%,155%
"COc1ccc(C2=N[C@@H](c3ccc(Cl)cc3)[C@@H](c3ccc(Cl)cc3)N2C(=O)N2CCNC(=O)C2)c(OC(C)C)c1 [Nutlin-3] + CO[C@@H]1[C@H](N(C)C(=O)c2ccccc2)C[C@H]2O[C@]1(C)n1c3ccccc3c3c4c(c5c6ccccc6n2c5c31)C(=O)NC4 [Midostaurin] (first compound 0.1 µM, partner dose 0.08 µM)",94.6%,49.9%,211%,520%,90.7%,66.2%,101%,105%,123%,130%,282%,116%,106%,71.2%,91.6%,66.4%,49%,59.3%,105%
"CC1(C)CCC(c2ccc(Cl)cc2)=C(CN2CCN(c3ccc(C(=O)NS(=O)(=O)c4ccc(N[C@H](CCN5CCOCC5)CSc5ccccc5)c(S(=O)(=O)C(F)(F)F)c4)cc3)CC2)C1 + C[C@@H]1CCN(C(=O)CC#N)C[C@@H]1N(C)c1ncnc2[nH]ccc12 [CP690550] (first compound 0.4 µM, partner dose 1 µM)",65.8%,143%,124%,113%,608%,713%,246%,789%,1060%,307%,300%,266%,145%,130%,50.3%,384%,101%,156%,84.8%
"COc1ccc(C2=N[C@@H](c3ccc(Cl)cc3)[C@@H](c3ccc(Cl)cc3)N2C(=O)N2CCNC(=O)C2)c(OC(C)C)c1 [Nutlin-3] + COc1cc2c(Oc3ccc4[nH]c(C)cc4c3F)ncnc2cc1OCCCN1CCCC1 [cediranib] (first compound 0.1 µM, partner dose 0.4 µM)",111%,169%,72.4%,197%,154%,152%,131%,92.7%,81.8%,111%,97.1%,30.7%,107%,93.6%,44.6%,71.6%,106%,95.5%,404%
"CN(c1ncccc1CNc1nc(Nc2ccc3c(c2)CC(=O)N3)ncc1C(F)(F)F)S(C)(=O)=O + CC(C)(C)c1cnc(CSc2cnc(NC(=O)C3CCNCC3)s2)o1 [SNS-032] (first compound 0.08 µM, partner dose 0.01 µM)",254%,167%,212%,30.3%,122%,81.9%,121%,87.9%,90.1%,117%,135%,103%,303%,119%,68.5%,145%,111%,52.5%,42.7%
"Cn1sc(=O)n(Cc2ccccc2)c1=O + CO[C@@H]1[C@H](N(C)C(=O)c2ccccc2)C[C@H]2O[C@]1(C)n1c3ccccc3c3c4c(c5c6ccccc6n2c5c31)C(=O)NC4 [Midostaurin] (first compound 0.4 µM, partner dose 0.08 µM)",85.1%,88.8%,142%,187%,106%,145%,177%,110%,110%,81.7%,234%,43.2%,112%,204%,71.6%,72.1%,92.8%,81.8%,196%
"CC(=O)O[C@@]12CO[C@@H]1C[C@H](O)[C@@]1(C)C(=O)[C@H](O)C3=C(C)[C@@H](OC(=O)[C@H](O)[C@@H](NC(=O)OC(C)(C)C)c4ccccc4)C[C@@](O)([C@@H](OC(=O)c4ccccc4)[C@H]21)C3(C)C [Docetaxel] + C[C@@H]1CCN(C(=O)CC#N)C[C@@H]1N(C)c1ncnc2[nH]ccc12 [CP690550] (first compound 0.0001 µM, partner dose 1 µM)",221%,111%,6680%,4540%,452%,182%,54.5%,164%,313%,190%,369%,550%,158%,1080%,198%,111%,191%,60.5%,83.3%
"CCN(CC)CCNC(=O)c1c(C)[nH]c(/C=C2\C(=O)Nc3ccc(F)cc32)c1C [sunitinib] + COc1cc2c(Oc3ccc4[nH]c(C)cc4c3F)ncnc2cc1OCCCN1CCCC1 [cediranib] (first compound 0.4 µM, partner dose 0.4 µM)",51.3%,110%,220%,123%,42.3%,55.2%,276%,77%,65.6%,97.8%,88.8%,70.7%,116%,132%,359%,130%,281%,147%,58%
